PubChem BioAssay AID504793 – Drosophila RNAi Screening Center, 2011
The deposit covers about 23,000 reagents; this is a random part of those with a known target gene and a result. In the full data, 62 (0.27%) got an active call. 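Calls come from follow-up tests whose scores are not deposited, so confirmed genes may have low counts here; counts are not normalised per plate.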 Raw values vary from plate to plate and are shown uncorrected. A number with no mark means an inactive call. Names joined by + are all predicted targets of the reagent.

Purpose: 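Genes required for cells to halt at G2/M after double-strand DNA breaks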 (primary screen)
Cells: Drosophila S2R+ cells
Knock-down reagent: long dsRNA against Drosophila genes, about 0.25 µg dsRNA per well
Time to read-out: 4 days of dsRNA, then 4 hours of drug before read-out
Conditions: doxorubicin 0.5 µM for 4 hours to cause double-strand breaks, in cells also given a low, harmless dose of dsRNA against nbs to sensitise the assay
Read-out: 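Per-well count of mitotic cells stained for phospho-histone H3 after doxorubicin exposure, used as mitotic index; counts are raw and not normalised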
Scale: mitotic cells: higher = more cells in mitosis, weaker G2 arrest
Hit rule: 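a call needs confirmation in secondary tests, with other dsRNAs and a check of mitotic timing without damage, not just a high primary count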
Calls: active = confirmed in follow-up tests; inactive = not confirmed

| Target gene | dsRNA | mitotic cells, replicate 1 |
| --- | --- | --- |
| Gr22b (Gustatory receptor 22b) | DRSC20911 | 19 |
| ClpX (Caseinolytic protease chaperone subunit) | DRSC15592 | 7 |
| CG17712 | DRSC00266 | 2 |
| CG14130 | DRSC10134 | 3 |
| Gr68a (Gustatory receptor 68a) | DRSC10803 | 6 |
| alpha-Man-IIa (alpha-Mannosidase class II a) | DRSC15393 | 3 |
| Cad74A (Cadherin 74A) | DRSC10636 | 9 |
| Cyp4e3 (Cytochrome P450 4e3) | DRSC03306 | 6 |
| Cyp4e3 (Cytochrome P450 4e3) | DRSC26425 | 9 |
| CG34002 | DRSC09512 | 7 |
| CG34002 | DRSC11953 | 4 |
| CG34002 | DRSC26854 | 11 |
| GstO3 (Glutathione S transferase O3) | DRSC10710 | 5 |
| CG15167 | DRSC02468 | 4 |
| CG31816 | DRSC01547 | 3 |
| Gr22a (Gustatory receptor 22a) | DRSC22283 | 7 |
| Gr22a (Gustatory receptor 22a) | DRSC26809 | 4 |
| CG17219 | DRSC00486 | 5 |
| CG6356 | DRSC16026 | 8 |
| CG8916 | DRSC20120 | 4 |
| cid (centromere identifier) | DRSC05429 | 6 |
| cid (centromere identifier) | DRSC07592 | 5 |
| vri (vrille) | DRSC23174 | 2 |
| vri (vrille) | DRSC26054 | 3 |
| CG5002 | DRSC06911 | 9 |

A stretch from the list above, as a working copy:
| Target gene | dsRNA | mitotic cells, replicate 1 |
| --- | --- | --- |
| Gr22b (Gustatory receptor 22b) | DRSC20911 | 19 |
| ClpX (Caseinolytic protease chaperone subunit) | DRSC15592 | 7 |
| CG17712 | DRSC00266 | 2 |
| CG14130 | DRSC10134 | 3 |
| Gr68a (Gustatory receptor 68a) | DRSC10803 | 6 |
| alpha-Man-IIa (alpha-Mannosidase class II a) | DRSC15393 | 3 |

The list goes on.
| Target gene | dsRNA | mitotic cells, replicate 1 |
| --- | --- | --- |
| Lfg (Lifeguard) | DRSC06853 | 7 |
| CG30413 | DRSC04001 | 6 |
| CG30413 | DRSC29520 | 13 |
| Jheh2 (Juvenile hormone epoxide hydrolase 2) | DRSC06530 | 1 |
| Jheh2 (Juvenile hormone epoxide hydrolase 2) | DRSC25496 | 6 |
| CG10321 | DRSC04061 | 6 |
| CG10321 | DRSC28284 | 4 |
| CG30054 | DRSC05354 | 2 |
| Cnx99A + Cnx14D | DRSC16610 | 15 |
| Ypel (Yippee-like) | DRSC17996 | 11 |
| Ypel (Yippee-like) | DRSC26440 | 4 |
| CG14340 | DRSC00370 | 9 |
| CG7992 | DRSC20070 | 5 |
| CG13053 | DRSC09934 | 4 |
| scrib (scribble) | DRSC13774 | 8 |
| scrib (scribble) | DRSC15809 | 7 |
| scrib (scribble) | DRSC17051 | 9 |
| scrib (scribble) | DRSC25196 | 6 |
| Sec24AB (Secretory 24AB) | DRSC06478 | 9 |
| Sec24AB (Secretory 24AB) | DRSC25940 | 3 |
| CG3902 | DRSC10387 | 4 |
| CG3902 | DRSC24267 | 5 |
| slbo (slow border cells) | DRSC04716 | 14 |
| slbo (slow border cells) | DRSC27813 | 11 |
| kipf (kipferl) | DRSC15446 | 12 |
| kipf (kipferl) | DRSC22871 | 5 |
| kipf (kipferl) | DRSC29690 | 5 |
| CG33270 | DRSC10584 | 10 |
| CG9410 + CG15908 | DRSC04976 | 3 |
| CG9410 + CG15908 | DRSC05001 | 9 |
| CG9410 + CG15908 | DRSC25956 | 4 |
| CG17005 | DRSC02556 | 3 |
| TAF1C-like | DRSC04073 | 4 |
| Nurf-38 (Nucleosome remodeling factor - 38kD) | DRSC04629 | 9 |
| Nurf-38 (Nucleosome remodeling factor - 38kD) | DRSC26858 | 4 |
| Cpsf5 (Cleavage and polyadenylation specific factor 5) | DRSC10374 | 5 |
| Cpsf5 (Cleavage and polyadenylation specific factor 5) | DRSC27451 | 16 |
| CG6511 | DRSC10656 | 3 |
| Nhe2 (Na[+]/H[+] hydrogen exchanger 2) | DRSC03172 | 9 |
| Nhe2 (Na[+]/H[+] hydrogen exchanger 2) | DRSC03377 | 6 |
| CG5235 | DRSC10494 | 4 |
| eIF3b (eukaryotic translation initiation factor 3 subunit b) | DRSC06900 | 3 |
| Sytalpha (Synaptotagmin alpha) | DRSC02869 | 7 |
| tadr (torn and diminished rhabdomeres) | DRSC03177 | 3 |
| CG8321 | DRSC07148 | 5 |
| Bem46 | DRSC00275 | 3 |
| halo | DRSC00705 | 2 |
| halo | DRSC27447 | 6 |
| CG30197 | DRSC22394 | 5 |
| CG5421 | DRSC02858 | 1 |
| CG5421 | DRSC24636 | 7 |
